For the assay, the target named is Plasmodium falciparum chitinase PfCHT1 expressed in chimeric P. berghei Pb-PfCHT1(r) (P. falciparum) (UniProt Q8I4R4). The assay is described as follows: chitin bead pull-down, non-reducing SDS-PAGE and western blot; chitin beads in Pb-PfCHT1(r) ookinete culture supernatant, 4°C for 4 h; washed with PBST (0.5% Tween 20) and PBS; SDS sample buffer without 2-mercaptoethanol; probed with mAb 1C3. (A western blot detects proteins with antibodies after separation by electrophoresis.)

These are yes or no findings as the source states them, for the method shown. Binding seen in cells or lysates may run through a third protein.

B1: Plasmodium falciparum chitinase PfCHT1 expressed in chimeric P. berghei Pb-PfCHT1(r) (enzyme, UniProt Q8I4R4 29-378)
chain: HRARPGESRKNPREIIKTFKESGKGIIQGYYPSWVSYNHNLKDLNPNLNVVHMSFAKMDLSYDSIESIVGSPLLFKSLIGLEYIGLNEYFNDAMNLRKARPDIIMLLSLGGETYHPSSFDSALNAVEKIANLVDELGFDGIDVDYEPNGSFDGLNDKEKADFFVQYVTKLREYMCDDKLISISQSSNGALSCIGFNDPKKICMDDEAPYNSKYFNKPDVKKELLRAAQMASAGGAIYLMNNLKDMIDMVFVQTFNYTNSTDSTVMKELYDSYAYYGKKYDYVIIMGFTLMFPSTPFNPNDKMLVKSIGDFVKTENKLNKRADGFGLWSLSSDNAAHNEQLAIEYFVESLH
As to B1, the binding entry is “no binding”.
